# According to the supplement of paper PMC8728848:
# The list shows a part of the results.
# B1: Clec18Av1 (Homo sapiens), A5D8T8 (protein)
# chain: MLHPETSPGRGHLLAVLLALLGTAWAEVWPPQLQEQAPMAGALNRKESFLLLSLHNRLRSWVQPPAADMRRLDWSDSLAQLAQARAALCGTPTPSLASGLWRTLQVGWNMQLLPAGLVSFVEVVSLWFAEGQRYSHAAGECARNATCTHYTQLVWATSSQLGCGRHLCSAGQAAIEAFVCAYSPRGNWEVNGKTIVPYKKGAWCSLCTASVSGCFKAWDHAGGLCEVPRNPCRMSCQNHGRLNISTCHCHCPPGYTGRYCQVRCSLQCVHGRFREEECSCVCDIGYGGAQCATKVHFPFHTCDLRIDGDCFMVSSEADTYYRARMKCQRKGGVLAQIKSQKVQDILAFYLGRLETTNEVIDSDFETRNFWIGLTYKTAKDSFRWATGEHQAFTSFAFGQPDNHGFGNCVELQASAAFNWNDQRCKTRNRYICQFAQEHISRWGPGS
# What was measured:
# Assay in all cases: glycan array binding signal (z-score within array); higher = stronger binding
# Settings in all cases: glycan notation: IUPAC condensed, linker removed
# [1] = molecular target: Man(a1-2)Man(a1-3)[Man(a1-2)Man(a1-6)]Man(a1-6)[Man(a1-2)Man(a1-2)Man(a1-3)]Man
# Summary of the method: (§1)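 The Consortium for Functional Glycomics database supplied 3228 glycan arrays, of which those lacking an available protein sequence were dropped. The binding signal, a within-array Z-score, was averaged across arrays of the same protein sequence and across linkers. Negative scores can be read as non-binding.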
# [2] = molecular target: Man(a1-2)Man(a1-3)[Man(a1-2)Man(a1-6)]Man(a1-6)[Man(a1-2)Man(a1-2)Man(a1-3)]Man(b1-4)GlcNAc(b1-4)GlcNAc
# Summary of the method: as §1
# [3] = molecular target: Man(a1-2)Man(a1-3)[Man(a1-6)]Man(a1-6)[Man(a1-2)Man(a1-3)]Man(b1-4)GlcNAc(b1-4)GlcNAc
# Summary of the method: as §1
# [4] = molecular target: Man(a1-2)Man(a1-6)[Man(a1-3)]Man(a1-6)[Man(a1-2)Man(a1-2)Man(a1-3)]Man
# Summary of the method: as §1
# [5] = molecular target: Man(a1-2)Man(a1-6)[Man(a1-3)]Man(a1-6)[Man(a1-2)Man(a1-2)Man(a1-3)]Man(b1-4)GlcNAc(b1-4)GlcNAc
# Summary of the method: as §1
# Man(a1-3)[Man(a1-6)]Man = molecular target: Man(a1-3)[Man(a1-6)]Man
# Summary of the method: as §1
# [6] = molecular target: Man(a1-3)[Man(a1-6)]Man(a1-6)[Man(a1-2)Man(a1-3)]Man(b1-4)GlcNAc(b1-4)GlcNAc
# Summary of the method: as §1
# [7] = molecular target: Man(a1-3)[Man(a1-6)]Man(a1-6)[Man(a1-3)]Man
# Summary of the method: as §1
# [8] = molecular target: Man(a1-3)[Man(a1-6)]Man(a1-6)[Man(a1-3)]Man(b1-4)GlcNAc(b1-4)GlcNAc
# Summary of the method: as §1
# [9] = molecular target: Man(a1-3)[Man(a1-6)]Man(b1-4)GlcNAc(b1-4)GlcNAc
# Summary of the method: as §1
# [10] = molecular target: Man(a1-3)[Man(a1-6)]Man(b1-4)GlcNAc(b1-4)[Fuc(a1-6)]GlcNAc
# Summary of the method: as §1
# Man(a1-6)Man = molecular target: Man(a1-6)Man
# Summary of the method: as §1
# Man(b1-4)GlcNAc = molecular target: Man(b1-4)GlcNAc
# Summary of the method: as §1
# MurNAc(b1-4)GlcNAc = molecular target: MurNAc(b1-4)GlcNAc
# Summary of the method: as §1
# Neu5Ac(a2-3)Gal = molecular target: Neu5Ac(a2-3)Gal
# Summary of the method: as §1
# [11] = molecular target: Neu5Ac(a2-3)Gal(b1-3)GalNAc
# Summary of the method: as §1
# [12] = molecular target: Neu5Ac(a2-3)Gal(b1-3)GalNAc(b1-3)Gal(a1-4)Gal(b1-4)Glc
# Summary of the method: as §1
# [13] = molecular target: Neu5Ac(a2-3)Gal(b1-3)GalNAc(b1-4)[Neu5Ac(a2-3)]Gal(b1-4)Glc
# Summary of the method: as §1
# [14] = molecular target: Neu5Ac(a2-3)Gal(b1-3)GalNAc(b1-4)[Neu5Ac(a2-8)Neu5Ac(a2-3)]Gal(b1-4)Glc
# Summary of the method: as §1
# [15] = molecular target: Neu5Ac(a2-3)Gal(b1-3)GalNAc6S
# Summary of the method: as §1
# [16] = molecular target: Neu5Ac(a2-3)Gal(b1-3)GlcNAc
# Summary of the method: as §1
# [17] = molecular target: Neu5Ac(a2-3)Gal(b1-3)GlcNAc(b1-2)Man
# Summary of the method: as §1
# [18] = molecular target: Neu5Ac(a2-3)Gal(b1-3)GlcNAc(b1-2)Man(a1-3)[GlcNAc(b1-4)][Neu5Ac(a2-3)Gal(b1-3)GlcNAc(b1-2)Man(a1-6)]Man(b1-4)GlcNAc(b1-4)GlcNAc
# Summary of the method: as §1
# [19] = molecular target: Neu5Ac(a2-3)Gal(b1-3)GlcNAc(b1-2)Man(a1-3)[Neu5Ac(a2-3)Gal(b1-3)GlcNAc(b1-2)Man(a1-6)]Man(b1-4)GlcNAc(b1-4)GlcNAc
# Summary of the method: as §1
# [20] = molecular target: Neu5Ac(a2-3)Gal(b1-3)GlcNAc(b1-3)Gal(b1-3)GlcNAc
# Summary of the method: as §1
# [21] = molecular target: Neu5Ac(a2-3)Gal(b1-3)GlcNAc(b1-3)Gal(b1-4)GlcNAc
# Summary of the method: as §1
# [22] = molecular target: Neu5Ac(a2-3)Gal(b1-3)GlcNAc(b1-3)GalNAc
# Summary of the method: as §1
# [23] = molecular target: Neu5Ac(a2-3)Gal(b1-3)GlcNAc(b1-4)Gal(b1-4)Glc
# Summary of the method: as §1
# [24] = molecular target: Neu5Ac(a2-3)Gal(b1-3)GlcNAc(b1-6)GalNAc
# Summary of the method: as §1
# [25] = molecular target: Neu5Ac(a2-3)Gal(b1-3)GlcNAc6S
# Summary of the method: as §1
# [26] = molecular target: Neu5Ac(a2-3)Gal(b1-3)[Fuc(a1-4)]GlcNAc
# Summary of the method: as §1
# [27] = molecular target: Neu5Ac(a2-3)Gal(b1-3)[Fuc(a1-4)]GlcNAc(b1-3)Gal(b1-3)[Fuc(a1-4)]GlcNAc
# Summary of the method: as §1
# [28] = molecular target: Neu5Ac(a2-3)Gal(b1-3)[Fuc(a1-4)]GlcNAc(b1-3)Gal(b1-4)[Fuc(a1-3)]GlcNAc
# Summary of the method: as §1
# [29] = molecular target: Neu5Ac(a2-3)Gal(b1-3)[GlcNAc(b1-6)]GalNAc
# Summary of the method: as §1
# [30] = molecular target: Neu5Ac(a2-3)Gal(b1-3)[Neu5Ac(a2-6)]GalNAc
# Summary of the method: as §1
# [31] = molecular target: Neu5Ac(a2-3)Gal(b1-3)[Neu5Ac(a2-6)]GlcNAc(b1-3)[Fuc(a1-3)[Gal(b1-4)]GlcNAc(b1-6)]Gal(b1-4)Glc
# Summary of the method: as §1
# [32] = molecular target: Neu5Ac(a2-3)Gal(b1-3)]Neu5Ac(a2-3)Gal(b1-4)]GlcNAc
# Summary of the method: as §1
binder,measurement,setting,value
B1,glycan array binding signal (z-score),[1],-0.565
same,glycan array binding signal (z-score),[2],0.46
same,glycan array binding signal (z-score),[3],1.03
same,glycan array binding signal (z-score),[4],-0.869
same,glycan array binding signal (z-score),[5],-0.42
same,glycan array binding signal (z-score),Man(a1-3)[Man(a1-6)]Man,-0.551
same,glycan array binding signal (z-score),[6],0.298
same,glycan array binding signal (z-score),[7],1.19
same,glycan array binding signal (z-score),[8],0.055
same,glycan array binding signal (z-score),[9],-0.777
same,glycan array binding signal (z-score),[10],0.672
same,glycan array binding signal (z-score),Man(a1-6)Man,0.038
same,glycan array binding signal (z-score),Man(b1-4)GlcNAc,-0.825
same,glycan array binding signal (z-score),MurNAc(b1-4)GlcNAc,-0.861
same,glycan array binding signal (z-score),Neu5Ac(a2-3)Gal,-0.849
same,glycan array binding signal (z-score),[11],-0.846
same,glycan array binding signal (z-score),[12],-0.26
same,glycan array binding signal (z-score),[13],0.146
same,glycan array binding signal (z-score),[14],-0.136
same,glycan array binding signal (z-score),[15],-0.865
same,glycan array binding signal (z-score),[16],-0.459
same,glycan array binding signal (z-score),[17],0.043
same,glycan array binding signal (z-score),[18],-0.451
same,glycan array binding signal (z-score),[19],-0.558
same,glycan array binding signal (z-score),[20],-0.858
same,glycan array binding signal (z-score),[21],-0.814
same,glycan array binding signal (z-score),[22],-0.601
same,glycan array binding signal (z-score),[23],-0.857
same,glycan array binding signal (z-score),[24],1.43
same,glycan array binding signal (z-score),[25],-0.859
same,glycan array binding signal (z-score),[26],-0.839
same,glycan array binding signal (z-score),[27],-0.017
same,glycan array binding signal (z-score),[28],-0.49
same,glycan array binding signal (z-score),[29],-0.848
same,glycan array binding signal (z-score),[30],-0.814
same,glycan array binding signal (z-score),[31],-0.12
same,glycan array binding signal (z-score),[32],-0.844
